Results as given in PubChem BioAssay AID1259354 (Paczesny and Yang Labs, IUPUI and University of Michigan, 2018).
Several values for one entry are separate records, joined by “and”; a condition that tells them apart may be missing. Equal values may be shown once. Out of some 78,000 compounds screened, about 1,800 (2.3%) were called active. The inconclusive results got no clear call from the source; some entries with a clear call stand among them for comparison. Rule as the data show it: active = inhibition above about 30%; inconclusive = mostly about 10% to 28%; inactive = weaker than that.

The chains behind the UniProt entries cited, without tags or fusion partners. Where a name states a change or a piece, a line headed by the entry shows the natural chain unless it says otherwise.
UniProt Q01638: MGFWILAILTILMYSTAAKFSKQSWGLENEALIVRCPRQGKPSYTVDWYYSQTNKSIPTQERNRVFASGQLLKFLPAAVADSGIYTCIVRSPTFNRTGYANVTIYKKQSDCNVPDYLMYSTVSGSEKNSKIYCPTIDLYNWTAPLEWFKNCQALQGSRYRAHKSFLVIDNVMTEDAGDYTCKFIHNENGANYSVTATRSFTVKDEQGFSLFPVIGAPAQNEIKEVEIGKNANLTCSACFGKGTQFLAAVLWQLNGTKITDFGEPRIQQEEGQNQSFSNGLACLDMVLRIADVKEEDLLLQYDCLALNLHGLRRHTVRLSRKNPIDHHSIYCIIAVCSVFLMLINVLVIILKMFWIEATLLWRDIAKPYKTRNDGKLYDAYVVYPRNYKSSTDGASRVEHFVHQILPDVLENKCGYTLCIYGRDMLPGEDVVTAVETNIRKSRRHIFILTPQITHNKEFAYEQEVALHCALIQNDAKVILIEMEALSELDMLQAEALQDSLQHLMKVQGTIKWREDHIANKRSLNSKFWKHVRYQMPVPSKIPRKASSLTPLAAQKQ

target: Interleukin-1 receptor-like 1 (Homo sapiens) (UniProt Q01638); test: blocks human ST2 binding to IL-33, primary screen, biochemical, AlphaLISA (AID 1259354); details: AlphaLISA ST2-Fc/biotin-IL-33 interaction, 1 h; at 17 µM, hits give high values

Compound | inhibition
O=C(Nc1ccc(-c2nc3ccccc3o2)cc1)c1ccc(S(=O)(=O)N2CCCC2)cc1 | inconclusive: 13%
CCOc1ccc(N2C(=O)c3ccccc3NC2(C)C)cc1 | inconclusive: 14%
COc1ccc(C2C(C#N)=C(N)Oc3n[nH]c(C)c32)cc1OCc1ccccc1 (stereo not given) | inactive
CCN(CC)C(=O)[C@@H]1C[C@H](N)CN1C(=O)/C=C/c1ccccc1 | inactive
CN1CC2(CCN(C(=O)c3cc4c(s3)CCCCC4)C2)OC1=O (stereo not given) | inconclusive: 12%
Cc1ccc(C(=O)Nc2cc3cc([N+](=O)[O-])ccc3oc2=O)cc1C | inconclusive: 15%
CCOc1ccc(/C=C2/SC(N3CCC(C)CC3)=NC2=O)cc1 | inconclusive: 25%
Cc1cc2c(c(=O)o1)C1(C(=O)Nc3ccc(Br)cc31)C(C#N)=C(N)O2 (stereo not given) | inactive
COc1ccc(Cn2c(=O)[nH]c3cc(C(=O)O)ccc3c2=O)cc1 | inactive
Cc1ccc(-c2noc(CCC(=O)N3CCN(c4cc(C)ccc4C)CC3)n2)cc1 | inconclusive: 17%
O=S(=O)(c1ccc(F)c(Cl)c1)N1CCN(c2cc(-c3cccc(F)c3)ncn2)CC1 | inconclusive: 10%
CC(=O)NS(=O)(=O)c1ccc(NC(=O)CCCOc2ccccc2)cc1 | inactive
O=C1CCCC2=C1C(c1ccc(O)cc1)Nc1ccccc1N2 (stereo not given) | inconclusive: 11%
c1ccc(-c2nc(CN3CCc4[nH]cnc4C3c3ccccn3)cs2)cc1 (stereo not given) | inactive
O=C(Nc1ccc2oc(-c3ccc(Cl)cc3)nc2c1)c1ccc(F)cc1 | inconclusive: 12%
Cc1cc(C)c(C(N)=O)c(Nc2ccccc2Cl)n1 | inconclusive: 19%
COc1ccc(C2CC(c3ccc(Br)cc3)=NN2C(=O)c2cccnc2)cc1 (stereo not given) | inconclusive: 12%
Cc1ccc(CNC(=O)CCCn2c(=O)c3sccc3n(Cc3ccc(F)cc3)c2=O)cc1 | inconclusive: 12%
COc1ccc(Cn2c(Oc3ccccc3)nc3c2c(=O)n(C)c(=O)n3C)cc1 | inconclusive: 21%
COc1ccc(C2=NN(CN3C(=O)C(=O)c4ccccc43)C(c3ccc(OC)cc3)C2)cc1 (stereo not given) | active: 36%

An excerpt from above in order of length of the SMILES, high to low.
Compound | inhibition
Cc1cc2c(c(=O)o1)C1(C(=O)Nc3ccc(Br)cc31)C(C#N)=C(N)O2 (stereo not given) | inactive
O=C(Nc1ccc2oc(-c3ccc(Cl)cc3)nc2c1)c1ccc(F)cc1 | inconclusive: 12%
CCOc1ccc(N2C(=O)c3ccccc3NC2(C)C)cc1 | inconclusive: 14%

Remaining list, next part.

Compound | inhibition
Cc1ccc(S(=O)(=O)NCCc2ccccc2)c2nsnc12 | inconclusive: 10%
Cc1nnc([C@H]2CCN(Cc3ccc(C#N)cc3)C2)o1 | inconclusive: 12%
O=[N+]([O-])c1ccc2nc(-c3ccccc3)[nH]c2c1 | inconclusive: 10%
COc1ccccc1N/C=C(/C#N)c1nc(-c2ccc3c(c2)OCO3)cs1 | inconclusive: 21%
Cc1c(Cl)c([N+](=O)[O-])nn1CCCC(=O)Nc1ccccc1C(F)(F)F | inactive
Cc1cc(CNC(=O)c2ccc3oc(CCc4ccccc4)nc3c2)nn1C | inconclusive: 15%
Fc1ccccc1Nc1ncnc2c1cnn2-c1ccc(Cl)cc1 | inconclusive: 15%
CCOc1ccc(C2Oc3c(cc(Br)cc3OC)C=C2[N+](=O)[O-])cc1OCC (stereo not given) | active: 43%
Cc1sc2c(c1C)C(=O)NC(c1cccc(O)c1)N2 (stereo not given) | inconclusive: 14%
O=C(CCC1CCCN(Cc2ccc(C(F)(F)F)cc2)C1)Nc1ccccc1F (stereo not given) | inconclusive: 11%
Fc1ccccc1-c1ccc(-c2nccn2CCc2cnccn2)o1 | inconclusive: 18%
O=C1NCCN2CCN(c3nc4ccc(Cl)cc4s3)CC12 (stereo not given) | inconclusive: 11%
O=C(Cc1ccccc1)Nc1cccc(NC(=O)Cc2ccccc2)n1 | inactive
COc1ccc(C[C@@H]2NC(=O)[C@@H]3C[C@@H](NC(=O)Nc4cccc(SC)c4)CCN3C2=O)cc1 | active: 33%
COc1ccc(C2(C(=O)N3CCCC(O)(CO)C3)CC2)cc1 (stereo not given) | inactive
CCC1(C)OC(=O)N(CCc2ccc(OC)c(OC)c2)C1(C)O (stereo not given) | inactive
O=C(c1cccs1)N1CCN(Cc2nc(CCc3ccccc3)no2)CC1 | inactive
COC(=O)c1cccc(-c2nccn2CCc2cccc(F)c2)n1 | inactive
CC(=O)Nc1ccc(NC(=O)c2cc(-c3ccc(Br)s3)nc3ccccc23)cc1 | inconclusive: 29%
CC(C)c1ccc(NC(=O)O[C@@H]2CO[C@H]3[C@@H]2OC[C@@H]3NS(=O)(=O)Cc2ccccc2)cc1 | inconclusive: 12%

Compound | inhibition
CC(=O)N1CCN(c2ncccc2CNC(=O)Cc2c(C)[nH]c3ccccc23)CC1 | inactive
O=c1c2ccccc2nc(CSc2nnnn2-c2ccccc2)n1-c1ccccc1 | inconclusive: 23%
Cc1nc2c(oc3nc(-c4ccoc4)c4c(c32)CC(C)(C)OC4)c(-c2ccccc2)c1C(=O)O | inconclusive: 19% and inconclusive: 16%
COC(=O)C1C(=O)CC(C)(O)C(C(=O)OC)C1c1ccc(C(C)C)cc1 (stereo not given) | inactive
Cn1nc2n(c1=O)CC(C(=O)Nc1cnc3n1CCCC3)CC2 (stereo not given) | inconclusive: 21%
CC(C)(O)C#CCN1CCOCC1 | inactive
CCN(C)c1ccc(/C=C2/C(=O)NN(c3cccc(Br)c3)C2=O)cc1 | active: 39%
Cc1ccc(OCCn2ccnc2)cc1 | inconclusive: 15%
O=C(Nc1cc(Cl)ccc1O)c1cc(-c2cccs2)on1 | inconclusive: 18%
Cc1cc(CN(C)Cc2cc3cc4c(cc3[nH]c2=O)CCC4)no1 | inactive
CCCC(=O)OCCN1C(=O)c2ccccc2C1=O | inconclusive: 14%
O=C(CSc1nc2c(c(=O)n1-c1ccccc1)SCC2)Nc1ccc(Cl)cc1 | inconclusive: 16%
Cc1nnc(SCC(=O)Nc2c(C)cnn2Cc2ccccc2Cl)s1 | inconclusive: 12%
Cc1nc(CC(=O)N2CCCC(Nc3ccc(C)c(C)c3)C2)cs1 (stereo not given) | inconclusive: 11%
COc1ccc(OCC(=O)Nc2ccc(S(=O)(=O)Nc3cc(C)ccc3C)cc2)cc1 | inactive
Cc1cc(NCCCO)n2c(nc3ccccc32)c1C#N | inconclusive: 15%
CC(C)(C)SCCN1CC(=O)N2CC[C@@H](O)C[C@H]2C1=O | inconclusive: 11%
O=S(=O)(N1CCOCC1)n1cnc2ccccc21 | inconclusive: 12%
O=C(NCc1cccnc1Oc1ccc(F)cc1F)C1(O)CCCC1 | inconclusive: 19%
Cc1ccc(-n2c(=O)c3sccc3n(Cc3ccccc3)c2=O)cc1 | inactive

2 successive compounds out of the list so far, quoted:
Compound | inhibition
Cc1cc(NCCCO)n2c(nc3ccccc32)c1C#N | inconclusive: 15%
CC(C)(C)SCCN1CC(=O)N2CC[C@@H](O)C[C@H]2C1=O | inconclusive: 11%
